PubChem BioAssay AID652272 – Drosophila RNAi Screening Center | 2013

- Aim: 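Genes whose knock-down decreases or increases Hedgehog reporter output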 (primary screen)
- System: Drosophila clone 8 (Cl8) cells
- Reagents: long dsRNA against Drosophila genes
- Measured: 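Plate reader light from a firefly reporter under a ptc promoter fragment that responds to Hedgehog, with Renilla light as transfection reference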
- Reading the numbers: firefly Hh reporter signal: higher = more ptc reporter light; Renilla reference signal: higher = more Renilla control light
- Active means: 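Called a hit if the two-replicate mean z-score lies below -2 or above +3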
- Meaning of the calls: active = hit: reporter lowered or raised; inactive = not a hit
The deposit covers about 21,000 reagents; shown is a random part of those that have a named target and a result. In the full data, 503 (2.4%) got an active call. 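Raw plate light values, not normalised; calls rest on replicate z-scores that were not deposited; hits include reporter decreases as well as increases.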 The numbers tell different reagents against one gene apart. The record does not give: the amount of reagent, the time to read-out.

The opening 2 records as a preview:
firefly Hh reporter signal, replicate 1	firefly Hh reporter signal, replicate 2	Renilla reference signal, replicate 1	Renilla reference signal, replicate 2	outcome	gene	dsRNA no.
91747	71082	1808	6425	inactive	CG13585 (GeneID 37918)	1
44649	1.41e5	999	5785	inactive	Rrp45 (GeneID 32665)	1

The list itself, from the first entry:
firefly Hh reporter signal, replicate 1	firefly Hh reporter signal, replicate 2	Renilla reference signal, replicate 1	Renilla reference signal, replicate 2	outcome	gene	dsRNA no.
91747	71082	1808	6425	inactive	CG13585 (GeneID 37918)	1
44649	1.41e5	999	5785	inactive	Rrp45 (GeneID 32665)	1
1.92e5	4.60e5	6080	17474	inactive	CG33467 (GeneID 2768834)	1
49539	1.69e5	1297	6299	inactive	CG11398 (GeneID 31070)	1
53066	96032	2512	3699	inactive	rdo (GeneID 35077)	1
98709	65432	3992	2668	inactive	Atg4a (GeneID 33283)	1
5.15e5	1.77e5	25932	7712	inactive	CG13784 (GeneID 34003)	1
57801	36672	2560	1564	inactive	CG13784 (GeneID 34003)	2
96016	2.27e5	3933	9457	inactive	CG33080 (GeneID 31491)	1
98617	2.75e5	3773	9002	inactive	CG33080 (GeneID 31491)	2
72396	2.08e5	2485	8348	inactive	CG33080 (GeneID 31491)	3
60981	90096	2204	2788	inactive	Sgt1 (GeneID 40982)	1
63908	91799	2487	2722	inactive	Edg84A (GeneID 40818)	1
1.12e5	60311	3028	4941	inactive	SmydA-3 (GeneID 34502)	1
73835	41579	2114	3579	inactive	SmydA-3 (GeneID 34502)	2
90429	60242	1936	5808	inactive	CG13527 (GeneID 37615)	1
1.16e5	1.31e5	3767	3401	inactive	Ccm3 (GeneID 41876)	1
1.19e5	1.06e5	2955	2477	inactive	CG1532 (GeneID 33076)	1
88258	46832	2424	4144	inactive	Or59b (GeneID 37715)	1
85505	88416	3794	3696	inactive	CG7778 (GeneID 34147)	1
66407	51277	933	4529	inactive	Traf4 (GeneID 33638)	1
69399	67515	3536	2810	inactive	Traf4 (GeneID 33638)	2
59927	40309	1446	3706	inactive	MESR3 (GeneID 35116)	1
